According to PMC3519889:
The exact form of at least one protein or probe is not confirmed. For part of these data: Weaker means in comparison with the reference protein, sequence or condition of that experiment.

Columns and labels:
[1] = biological target: NarP (SO3982), phosphorylated (Shewanella oneidensis) (UniProt Q8EAC5); test: EMSA; details: 2 ug poly(dI·dC), 100 mM Tris/HCl pH 7.4, 20 mM KCl, 10 mM MgCl2, 2 mM DTT, 10% glycerol, 15 C, 60 min, ~2 nM probe, 4.8% native PAGE, recombinant protein, residues 1-209, protein details: N-terminal His-tag, label: 33P end label, probe letters rebuilt from the primers and the genome
[2] = biological target: NarP (SO3982), phosphorylated (Shewanella oneidensis) (UniProt Q8EAC5); test: competition with a labelled probe; details: excess unlabeled nrfA fragment (10 uM) outcompetes labeled probe; 100 mM Tris/HCl pH 7.4, 20 mM KCl, 10 mM MgCl2, 2 mM DTT, 10% glycerol, 15 C, 60 min, ~2 nM probe, 2 ug poly(dI·dC); 4.8% native PAGE; recombinant protein; residues 1-209; protein details: N-terminal His-tag; label: 33P end label; probe letters rebuilt from the primers and the genome

Row | Sequence | binding result ([1]; NarP phosphorylated by NarQ51-585 and ATP) | binding result [2] | binding result ([1]; 2 uM NarP phosphorylated by NarQ51-585, much lower than nrfA)
1 | AAGTTAGTAGCTAAATACCGCTAAAAATATACCTCTTAGGGGGTATCTGAAACGAAGTTTGCGCTAGATCAAAATGTAATAGTGTTGTTGTTCACACTTCTATGCTTTTGTTAATGTAATACATTATTTTCTAATGTAAAAAACACGGCT (double strand) [nrfA promoter fragment] | binds | binds | –
2 | GTACAACTAAATGTGGATACCTGCGAGTCTAGACCTGATTAAAAATGTGGGTATACCTCACAAGAGGTATTGAAGGGGATAGTCGATCGGGATCAAAGTTTTACGCGTGATCTAACTCTCAGTTTGAAATTTAAACAATCGCTATCCCTT (double strand) [nap promoter fragment] | – | – | binds more weakly
